From PubChem BioAssay AID2551 (National Center for Advancing Translational Sciences (NCATS), 2010)
The whole screen tested about 310,000 compounds, of which about 17,000 (5.5%) were called active. Inconclusive results, whose numbers are uncertain, are shown with a selection of clear calls. The call rests on the fitted dose curve; in most records, active means well fitted inhibition curve with a large enough effect; inconclusive means small, poorly fitted or top-dose-only effect, or effect the other way; inactive means no such curve, though single readings can be large or run the other way. Potencies of inconclusive entries are doubtful fits and often do not repeat.

Chains of the proteins cited; added tags and fusions are not shown. Lines headed by an entry give the natural chain unless they say otherwise; changes in a name come on top.
UniProt P51450: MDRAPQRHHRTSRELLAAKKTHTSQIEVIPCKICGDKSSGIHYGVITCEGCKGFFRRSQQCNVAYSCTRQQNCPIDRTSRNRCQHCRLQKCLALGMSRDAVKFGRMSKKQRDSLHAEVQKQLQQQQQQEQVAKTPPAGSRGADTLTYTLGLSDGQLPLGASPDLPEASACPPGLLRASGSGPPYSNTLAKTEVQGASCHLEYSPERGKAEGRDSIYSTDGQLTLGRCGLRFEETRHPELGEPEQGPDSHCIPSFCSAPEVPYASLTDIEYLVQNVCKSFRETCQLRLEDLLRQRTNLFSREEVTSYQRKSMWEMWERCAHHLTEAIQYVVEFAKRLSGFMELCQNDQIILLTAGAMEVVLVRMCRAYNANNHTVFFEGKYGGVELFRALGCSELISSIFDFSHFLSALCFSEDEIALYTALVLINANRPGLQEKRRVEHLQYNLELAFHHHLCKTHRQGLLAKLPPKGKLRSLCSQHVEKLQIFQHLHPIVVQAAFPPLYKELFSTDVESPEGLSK

What follows are compounds tested against Nuclear receptor ROR-gamma (Mus musculus) (UniProt P51450) (assay: qHTS for inhibitors of ROR gamma transcriptional activity). Conditions: Drosophila S2 Gal4-RORgamma UAS-luciferase reporter, 20 h; activity change, negative = inhibition: at 53.6 µM (top of the series).
How it was run: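 Schneider cells (Drosophila), stable Gal4 DBD–ROR gamma + UAS-luc; 1 hr cmpd preincubation; Cu2+ induction 700 uM final; 20 hr ambient; luminescence.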
Further: nearly all actives have a fitted effect of over 60% in size.
On the % scale 0 is the no-effect control and ±100 the full control effect; potency means the concentration at half of the fitted maximal effect.

Q: For `Cc1ccc(C)n1-c1nc(=S)[nH][nH]1`, which “activity change, negative = inhibition” value is on record?
A: inactive: -30.5%

Q: For `Cc1nnc(SCC(=O)Nc2ccc(N(C)C)cc2)n(N)c1=O`, which “activity change, negative = inhibition” value is on record?
A: inactive: -23.7%

Q: `O=C(Nc1nnc(-c2ccccc2)o1)C1CCCCC1` was tested. Which Potency did it give?
A: active: 3.55 µM

Q: For `O=C(NNC(=S)Nc1ccc(F)cc1)C1CC1c1ccc(Cl)cc1` (stereo not drawn), which Potency is on record?
A: inconclusive: 28.2 µM [inhibitor, single point]

Q: Which Potency does the source give for `COc1ccc(NC(=S)NCCCc2ccccc2)cc1` here?
A: active: 3.55 µM

Q: With `CCC/C=N/NC(=O)c1cccc(Br)c1` as the compound, how does the Potency read?
A: inconclusive: 1.58 µM [inhibitor, partial curve]

Q: For `S=C(N/N=C/c1ccc2ncccc2c1)Nc1ccccc1`, which Potency is on record?
A: active: 1.26 µM

Q: `O=C(CC1SC(=O)N(Cc2cccc3ccccc23)C1=O)Nc1nccs1` (stereo not drawn) was tested. Which Potency did it give?
A: inconclusive: 4.47 µM [activator, partial curve]

Q: How did the Potency turn out when `CCOC(=O)N1CCN(c2nc(-c3ccc(F)cc3)cs2)CC1` was run?
A: inconclusive: 7.94 µM [activator, partial curve, poor fit]

Q: Which Potency does the source give for `CCCNC(=O)C1CCN(c2nc(C)cc(C)n2)CC1` here?
A: inconclusive: 31.6 µM [activator, single point]

Q: With `Cc1ccc2cc(CN(c3cccc(C)c3C)S(=O)(=O)c3ccccc3)c(=O)[nH]c2c1` as the compound, how does the “activity change, negative = inhibition” value read?
A: inactive: 7.31%

Q: For `COc1ccc(Nc2nc(N)nc(CSC(=S)N3CCN(C)CC3)n2)cc1`, which Potency is on record?
A: inconclusive: 4.47 µM [activator, partial curve]

Q: With `CCOc1ccc(NCC(=O)N/N=C/C=C/c2ccccc2)cc1` as the compound, how does the Potency read?
A: inconclusive: 35.5 µM [inhibitor, single point]

Q: How did the Potency turn out when `NNc1nc(-c2ccccc2)nc2sc3c(c12)CCCC3` was run?
A: inconclusive: 10 µM [inhibitor, partial curve, poor fit]

Q: How did the “activity change, negative = inhibition” value turn out when `CC(NC(=O)Nc1ccccc1F)C(C)(C)C` (stereo not drawn) was run?
A: inactive: 1.17%

Q: `CCOC(=O)Cc1csc(NC(=O)Nc2ccccc2)n1` was tested. Which Potency did it give?
A: inconclusive: 4.47 µM [activator, full curve, poor fit]

Q: Which Potency does the source give for `NNc1nc2ccc(Cl)cc2s1` here?
A: inconclusive: 20 µM [inhibitor, single point]

Q: Which Potency does the source give for `Cc1ccc2nc(NC(=O)c3ccc4c(c3)OCO4)sc2c1` here?
A: active: 7.94 µM

Q: How did the “activity change, negative = inhibition” value turn out when `COc1ccc(NC(=O)N2c3ccc(OC)cc3C(C)=CC2(C)C)cc1` was run?
A: inactive: -30%

Q: For `O=C(COC(=O)c1cncc(Br)c1)Nc1nc(-c2ccc(F)cc2)cs1`, which Potency is on record?
A: inconclusive: 22.4 µM [activator, single point]

Q: With `Cc1ccc(C(=O)Nc2cnc3sc(C)nn3c2=O)cc1` as the compound, how does the “activity change, negative = inhibition” value read?
A: inactive: 3.3%

Q: Which Potency does the source give for `COc1ccc(OC)c(NC(=O)Nc2ccc(Cl)cc2)c1` here?
A: inconclusive: 12.6 µM [activator, single point]

Q: Which Potency does the source give for `CC1(C)CC(=O)C2=C(C1)Nc1ccccc1NC2c1cc(Cl)ccc1O` (stereo not drawn) here?
A: inconclusive: 31.6 µM [activator, single point]

Q: With `CCOC(=O)C1CCCN(C(=O)c2cc(S(=O)(=O)N3CCCCC3)ccc2C)C1` (stereo not drawn) as the compound, how does the Potency read?
A: inconclusive: 35.5 µM [activator, single point]

Q: Which Potency does the source give for `CCCn1c(SCC(=O)c2ccc3c(c2)NC(=O)CO3)nc2ccccc21` here?
A: inconclusive: 3.16 µM [inhibitor, single point]

Q: With `Cc1ccccc1Nc1nc(N)nc(COC(=O)CCS(=O)(=O)c2ccccc2)n1` as the compound, how does the Potency read?
A: inconclusive: 0.0891 µM [activator, full curve, poor fit]

Q: Which “activity change, negative = inhibition” value does the source give for `CCn1c(CNC(=O)c2ccc(Cl)cc2)nnc1SCC(=O)NC1=NCCS1` here?
A: inactive: -1.87%

Q: `CC(/C=N/Nc1nc(C)cc(C)n1)=C\c1ccc(C(C)C)cc1` was tested. Which Potency did it give?
A: active: 11.2 µM

Q: For `Nc1nc(Nc2cccc(C(F)(F)F)c2)nc(C(F)(F)F)n1`, which Potency is on record?
A: inconclusive: 8.91 µM [activator, partial curve]

Q: How did the Potency turn out when `CC(=O)NC(=S)Nc1ccc(NC(=S)NC(=O)/C=C/c2ccco2)cc1` was run?
A: inconclusive: 6.31 µM [inhibitor, partial curve]

Q: `COc1ccc(-c2cc(C(=O)N/N=C/c3cccnc3)c3ccccc3n2)cc1` was tested. Which “activity change, negative = inhibition” value did it give?
A: inactive: -36.3%

Q: Which Potency does the source give for `CCOc1ccc2nc(N3C(=O)/C(=C/c4ccccc4)NC3=S)sc2c1` here?
A: active: 1.26 µM

Q: Which “activity change, negative = inhibition” value does the source give for `CCCCNC(=O)CN1C(=O)NC(CCc2ccccc2)C1=O` (stereo not drawn) here?
A: inactive: 7.46%

Q: For `Cc1ccccc1Cn1c2ccccc2c2cnn(CC(=O)N3CCN(c4ccccc4)CC3)c(=O)c21`, which Potency is on record?
A: inconclusive: 2.82 µM [inhibitor, full curve]

Q: With `COc1ccc(CCNC(=O)/C(C#N)=C2\N=C(NC(=O)c3cccs3)c3ccccc32)cc1` as the compound, how does the Potency read?
A: inconclusive: 10 µM [activator, partial curve, poor fit]

Q: For `Cc1ccc(/C=N/n2c(-c3cccnc3)n[nH]c2=S)s1`, which Potency is on record?
A: active: 7.08 µM

Q: `COC(=O)c1sc(S(=O)(=O)Nc2ccc(C)c(C)c2)c(C(=O)OC)c1C` was tested. Which “activity change, negative = inhibition” value did it give?
A: inactive: 36.9%

Q: `CC(C)=N/N=C1\NC(=O)C(C)S1` (stereo not drawn) was tested. Which Potency did it give?
A: active: 11.2 µM

Q: How did the “activity change, negative = inhibition” value turn out when `CCc1ccc(Nc2n[n+](-c3ccccc3)c(-c3ccc(OC)c(Br)c3)s2)cc1` was run?
A: inactive: 26.6%

Q: With `CCc1nc(SCC(=O)Nc2cc(C)ccc2OC)c2c(C)c(C)sc2n1` as the compound, how does the “activity change, negative = inhibition” value read?
A: inactive: -17.5%

Q: `Cc1ccc(-n2nc(C)c3c(-c4cccs4)c(C#N)c(N)nc32)cc1` was tested. Which Potency did it give?
A: inconclusive: 10 µM [activator, partial curve]

Q: `COc1ccc(CNCCC(c2ccc(OC(C)C)cc2)C(C)C)cc1OC` (stereo not drawn) was tested. Which “activity change, negative = inhibition” value did it give?
A: inactive: -27.5%

Q: `Cc1ccc(NC(=O)CC(=O)NCCN2CCOCC2)cc1` was tested. Which Potency did it give?
A: inconclusive: 2.51 µM [inhibitor, partial curve]

Q: With `COc1ccc2[nH]cc(CCNc3ncnc4ccc(-c5ccccc5C#N)cc34)c2c1` as the compound, how does the Potency read?
A: inconclusive: 11.2 µM [activator, single point]

Q: For `O=c1c2cccnc2[nH]c(=S)n1Cc1ccccc1`, which Potency is on record?
A: active: 10 µM

Q: `O=C(Nc1nc(N2C(=O)c3ccccc3C2=O)n(-c2ccccc2)n1)c1ccc(Cl)cc1` was tested. Which Potency did it give?
A: active: 14.1 µM

Q: With `Cc1csc(NC(=O)CSc2nnc(CCNC(=O)c3cccs3)n2C)n1` as the compound, how does the Potency read?
A: inconclusive: 35.5 µM [activator, single point]

Q: How did the Potency turn out when `O=C(O)c1ccccc1SC1CC(=O)N(c2cccc3ccccc23)C1=O` (stereo not drawn) was run?
A: inconclusive: 25.1 µM [inhibitor, single point]

Q: How did the Potency turn out when `O=C(CSc1nc2ccccc2[nH]1)NCc1ccc(F)cc1` was run?
A: inconclusive: 1.58 µM [activator, full curve, poor fit]

Q: How did the Potency turn out when `COc1cccc(Oc2cn[nH]c2-c2ccc(OC)cc2O)c1` was run?
A: active: 7.08 µM

Q: Which Potency does the source give for `O=C(c1ccc2c(=O)n(Cc3ccccc3)c(=S)[nH]c2c1)N1CCCC1` here?
A: active: 11.2 µM

Q: Which Potency does the source give for `COc1cc(C2NC(=O)NC(C)=C2C(=O)OC2CCCCC2)cc(Cl)c1O` (stereo not drawn) here?
A: inconclusive: 3.55 µM [activator, partial curve]

Q: With `Cc1ccc(-c2cc(-c3ccccc3[N+](=O)[O-])[nH]n2)c(O)c1` as the compound, how does the Potency read?
A: active: 17.8 µM

Q: How did the “activity change, negative = inhibition” value turn out when `COC(=O)C1=C(C)[C@@H](O)[C@@H](C)[C@](C)(c2cc(OC)c(C)c(OC)c2COc2ccccc2)O1` was run?
A: inactive: -22.2%

Q: Which “activity change, negative = inhibition” value does the source give for `CCOC(=O)N1CCN(S(=O)(=O)N2CCCC(C(=O)NCCCN3CCCCC3)C2)CC1` (stereo not drawn) here?
A: inactive: -10.8%

Q: With `CC(=O)c1c(C)[nH]c(C(=O)COC(=O)c2cccc(S(=O)(=O)N(C)c3ccccc3)c2)c1C` as the compound, how does the Potency read?
A: inconclusive: 17.8 µM [inhibitor, single point]

Q: With `O=C(/C=C/Nc1ccccc1)C(F)(F)F` as the compound, how does the Potency read?
A: inconclusive: 15.8 µM [activator, partial curve, poor fit]

Q: For `COc1cccc(/C=C/C2=CC(C)(C)NC(=S)N2)c1`, which Potency is on record?
A: active: 1.26 µM

Q: For `COc1ccc(C(=O)/C=C2/C(=O)Nc3ccccc32)cc1OC`, which Potency is on record?
A: inconclusive: 2 µM [inhibitor, full curve, poor fit]

Q: With `Cc1ccc(NCc2ccccc2)cc1` as the compound, how does the Potency read?
A: inconclusive: 15.8 µM [activator, single point]

Q: `O=c1c2cc(Cl)ccc2[nH]c(=S)n1Cc1ccco1` was tested. Which Potency did it give?
A: active: 2.24 µM

Q: How did the Potency turn out when `c1cncc(CNc2ncnc3ccc(-c4cccnc4)cc23)c1` was run?
A: inconclusive: 2.24 µM [activator, partial curve]

Q: For `c1ccc(-n2nnnc2NC2CCCCCC2)cc1`, which Potency is on record?
A: inconclusive: 35.5 µM [activator, partial curve, poor fit]

Q: How did the “activity change, negative = inhibition” value turn out when `COC(=O)c1c(NC(=O)C2COc3ccccc3O2)sc2c1CCN(Cc1ccccc1)C2` (stereo not drawn) was run?
A: inactive: -39.3%

Q: How did the Potency turn out when `COCCOC(=O)/C(=C\c1cc(C(C)(C)C)c(O)c(C(C)(C)C)c1)C(C)=O` was run?
A: inconclusive: 31.6 µM [activator, single point]

Q: With `Cn1cccc1/C=N/n1c(-c2ccco2)n[nH]c1=S` as the compound, how does the Potency read?
A: active: 11.2 µM

Q: `CCOc1ccc2nc(C)cc(Nc3cccc([N+](=O)[O-])c3)c2c1` was tested. Which Potency did it give?
A: inconclusive: 25.1 µM [inhibitor, single point]

Q: How did the Potency turn out when `COc1ccc2nc(NC(=O)c3cccs3)sc2c1` was run?
A: active: 10 µM

Q: For `CCc1nc(NCc2cccnc2)c2oc3ccccc3c2n1`, which “activity change, negative = inhibition” value is on record?
A: inactive: 8.18%

Q: With `C[C@@H]1CCc2cc(F)cc3c(=O)c(C(=O)O)cn1c23` as the compound, how does the “activity change, negative = inhibition” value read?
A: inactive: 0.34% [at 16.9 µM]

Q: For `COc1ccc(OCC(=O)Nc2nc3ccccc3[nH]2)cc1`, which Potency is on record?
A: active: 0.794 µM

Q: With `CCOC(=O)c1cnc2oc3ccccc3n2c1=O` as the compound, how does the Potency read?
A: inconclusive: 0.199 µM [inhibitor, single point]

Q: With `N#CCC(=O)N/N=C\c1ccccc1OC/C=C/c1ccccc1` as the compound, how does the “activity change, negative = inhibition” value read?
A: inactive: 0.785%

Q: How did the Potency turn out when `Cc1nn(-c2ccccc2)c(Cl)c1/C=N/Nc1nc2ccccc2n1C` was run?
A: active: 1.12 µM

Q: How did the “activity change, negative = inhibition” value turn out when `COC(=O)Nc1ccc(S(=O)(=O)N2CCC(C(=O)N3CCCC(C)C3)CC2)cc1` (stereo not drawn) was run?
A: inactive: -7.69%

Q: Which Potency does the source give for `O=C(/C=C/c1ccc(Cl)cc1)NC(=S)Nc1ccc(NC(=O)c2ccco2)cc1` here?
A: active: 4.47 µM

Q: Which Potency does the source give for `COc1ccc2c(c1)cc(C(=O)N/N=C/c1c(O)c(C(=O)O)cc3ccccc13)n2C` here?
A: active: 11.2 µM

Q: For `Cn1c(=O)c(C(=O)CN2CCCCC2)c(N)n(Cc2ccccc2)c1=O`, which “activity change, negative = inhibition” value is on record?
A: inactive: 19.9%
